From patent US20210008044A1
No constants are given. Whether binding was seen depends on the method and setting. Some entries that bind do so weakly or less than the wild type.

Sequences of proteins named here, by UniProt entry; tags and fusion partners are left off. Residues count along the entry.
UniProt P53762, residues 2-791: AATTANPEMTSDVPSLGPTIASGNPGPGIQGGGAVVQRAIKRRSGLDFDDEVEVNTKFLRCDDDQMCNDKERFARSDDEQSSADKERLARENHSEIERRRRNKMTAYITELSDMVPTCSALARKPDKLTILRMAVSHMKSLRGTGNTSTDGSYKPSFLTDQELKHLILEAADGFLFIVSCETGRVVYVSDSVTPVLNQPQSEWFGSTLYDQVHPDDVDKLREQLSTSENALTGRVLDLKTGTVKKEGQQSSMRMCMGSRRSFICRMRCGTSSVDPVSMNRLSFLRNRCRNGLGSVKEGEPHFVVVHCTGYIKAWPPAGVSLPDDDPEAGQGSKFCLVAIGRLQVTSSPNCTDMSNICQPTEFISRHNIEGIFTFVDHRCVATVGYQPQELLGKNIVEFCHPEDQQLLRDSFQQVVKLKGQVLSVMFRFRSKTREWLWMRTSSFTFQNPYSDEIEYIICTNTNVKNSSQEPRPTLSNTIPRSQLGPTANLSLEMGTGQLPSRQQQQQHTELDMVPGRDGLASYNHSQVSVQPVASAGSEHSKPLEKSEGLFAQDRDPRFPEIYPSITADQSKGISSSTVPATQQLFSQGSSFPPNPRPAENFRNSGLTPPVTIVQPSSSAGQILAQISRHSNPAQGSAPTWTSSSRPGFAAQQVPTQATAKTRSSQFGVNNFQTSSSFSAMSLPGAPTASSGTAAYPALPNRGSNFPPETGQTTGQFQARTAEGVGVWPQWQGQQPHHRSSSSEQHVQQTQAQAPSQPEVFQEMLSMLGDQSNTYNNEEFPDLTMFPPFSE

Columns and labels:
[1] = target: ARNT (aryl hydrocarbon receptor nuclear translocator, synonym HIF1β), endogenous in murine tubular epithelial cells and mouse kidney (mouse) (UniProt P53762); assay: Arnt immunoprecipitation, native gel and immunoblot of total kidney lysates of UUO mice treated with FK506 (FIG. 38)
[2] = target: ARNT (aryl hydrocarbon receptor nuclear translocator, synonym HIF1β), endogenous in murine tubular epithelial cells and mouse kidney (mouse) (UniProt P53762); assay: native gel electrophoresis and immunoblot, cultured murine TECs; dimer formation further enhanced upon FK506 (FIG. 35)

ARNT (aryl hydrocarbon receptor nuclear translocator, synonym HIF1β), endogenous in murine tubular epithelial cells and mouse kidney (from UniProt P53762 2-791)
binding [1]: binds | binding [2]: binds
